PubChem BioAssay AID292 (DTP/NCI, 2004)
The list is a part of this screen's results and no random one: it gathers tests that were run many times, whatever their T/C, doses with no T/C, and many T/C values between a quarter and a half above the control. Other doses and runs of a compound stand elsewhere. T/C gives the treated animals as a percentage of the vehicle group. Some entries give survivors of the animals treated and no T/C: the source holds a T/C of zero for them, seemingly a mark for toxic or unscored doses. Some doses without a T/C left all or most animals alive at the check, yet need not have been tolerated: survival well below the control is almost never listed, so the zero probably covers shortened survival too. Survivors were counted at the toxicity check, usually on the fifth day, unless a day is given; later deaths do not show. Schedule codes are those of the source, taken here to give the interval after Q, in days (D) or hours (H), and the number of doses after X. Counts like (3×) stand for listed records that agree. Some entries hold several experiments; the values are given in rising order. Where survival is the endpoint, the PubChem record calls one and a half times the control and up active, and a quarter to a half above the control has no call in these data; cut-offs in other NCI protocols can differ. Some T/C values are followed by the survivors on the day toxicity was checked, most often the fifth; where none is given, no animal had died by that day.

Tested on: B6C3F1 mice, ip Sarcoma M5076, median survival T/C
Assay: NCI In Vivo Anticancer Drug Screen. Data for tumor model Sarcoma M5076 (intraperitoneal) in B6C3F1 mice
Conditions: T/C endpoint: median survival time, higher T/C = longer survival
In short: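 The readout is a ratio of survival in drug-treated animals to survival in animals given vehicle alone, taken in mice bearing a transplanted tumour line.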

[1] = dose: 12.0 mg/kg/injection, schedule: Q04DX005 (ip), vehicle: Klucel (hydroxypropylcellulose) (HPC)
[2] = dose: 400.0 mg/kg/injection, schedule: Q04DX004 (ip), vehicle: Klucel (hydroxypropylcellulose) (HPC)
[3] = dose: 800.0 mg/kg/injection, schedule: Q04DX004 (ip), vehicle: Klucel (hydroxypropylcellulose) (HPC)
[4] = dose: 100.0 mg/kg/injection, schedule: Q04DX004 (ip), vehicle: water
[5] = dose: 200.0 mg/kg/injection, schedule: Q04DX004 (ip), vehicle: saline with Tween-80
[6] = dose: 100.0 mg/kg/injection, schedule: Q04DX004 (ip), vehicle: saline with Tween-80
[7] = dose: 400.0 mg/kg/injection, schedule: Q04DX004 (ip), vehicle: saline with Tween-80
[8] = dose: 50.0 mg/kg/injection, schedule: Q04DX004 (ip), vehicle: saline with Tween-80

`Nc1nc(=S)c2[nH]cnc2[nH]1` was tested, and the T/C (dose: 1.5 mg/kg/injection, schedule: Q01DX004 (ip), vehicle: Klucel (hydroxypropylcellulose) (HPC)) was 146 % of control, the T/C (dose: 1.5 mg/kg/injection, schedule: Q04DX004 (ip), vehicle: Klucel (hydroxypropylcellulose) (HPC), evaluated on day 60) was 130 and 147 % of control and the T/C (dose: 1.5 mg/kg/injection, schedule: Q04DX004 (ip), vehicle: Klucel (hydroxypropylcellulose) (HPC), evaluated on day 75) was 116, 119, 129, 131 [9 of 10 alive on day 14], 136, 141, 151 % of control. For the same molecule, the T/C (dose: 1.5 mg/kg/injection, schedule: Q04DX005 (ip), vehicle: Klucel (hydroxypropylcellulose) (HPC)) was 114, 117, 132, 145 % of control, the T/C (dose: 3.0 mg/kg/injection, schedule: Q04DX004 (ip), vehicle: Klucel (hydroxypropylcellulose) (HPC), evaluated on day 60) was 133, 141, 150 % of control and the T/C (dose: 3.0 mg/kg/injection, schedule: Q04DX004 (ip), vehicle: Klucel (hydroxypropylcellulose) (HPC), evaluated on day 75) was 121, 130, 133, 137, 141, 152, 165 % of control. For the same molecule, the T/C (dose: 3.0 mg/kg/injection, schedule: Q04DX005 (ip), vehicle: Klucel (hydroxypropylcellulose) (HPC)) was 129, 130, 132, 201 % of control, the T/C (dose: 6.0 mg/kg/injection, schedule: Q04DX004 (ip), vehicle: Klucel (hydroxypropylcellulose) (HPC), evaluated on day 60) was 152, 153, 169 % of control and the T/C (dose: 6.0 mg/kg/injection, schedule: Q04DX004 (ip), vehicle: Klucel (hydroxypropylcellulose) (HPC), evaluated on day 75) was 128, 137, 139 [9 of 10 alive on day 14], 144 [9 of 10 alive on day 9], 153, 156, 161 % of control [8 of 10 alive on day 14]. For the same molecule, the T/C (dose: 6.0 mg/kg/injection, schedule: Q04DX005 (ip), vehicle: Klucel (hydroxypropylcellulose) (HPC)) was 93, 136, 141, 183 % of control, the T/C (dose: 12.0 mg/kg/injection, schedule: Q04DX004 (ip), vehicle: Klucel (hydroxypropylcellulose) (HPC), evaluated on day 60) was 168, 173, 181 % of control and the T/C (dose: 12.0 mg/kg/injection, schedule: Q04DX004 (ip), vehicle: Klucel (hydroxypropylcellulose) (HPC), evaluated on day 75) was 141, 143, 161, 177, 183, 193 % of control [7 of 10 alive on day 14]. The survivor count (dose: 12.0 mg/kg/injection, schedule: Q04DX004 (ip), vehicle: Klucel (hydroxypropylcellulose) (HPC)) was 7 of 10 on day 9, the T/C [1] was 179 % of control and the survivor count [1] was 10 of 10 on day 9. For the same molecule, the survivor count (dose: 24.0 mg/kg/injection, schedule: Q04DX004 (ip), vehicle: Klucel (hydroxypropylcellulose) (HPC)) was 5 of 10 on day 14 and 9 of 10 on day 14.
In the case of `CN1C2C=CC(=O)C1C1C(=O)N(c3ccccc3)C(=O)C12` (stereo not given), the survivor count [2] is reported as 0 of 10 on day 14 and the survivor count [3] is reported as 0 of 10 on day 14.
With `CCOc1ccc(C(C)c2cc3c(cc2OC)OCO3)cc1` (stereo not given) the T/C (dose: 250.0 mg/kg/injection, schedule: Q04DX004 (ip), vehicle: distilled water + Tween-80) was 125 % of control, the survivor count (dose: 500.0 mg/kg/injection, schedule: Q04DX004 (ip), vehicle: distilled water + Tween-80) was 6 of 10 on day 14 (2×) and the survivor count (dose: 1000.0 mg/kg/injection, schedule: Q04DX004 (ip), vehicle: distilled water + Tween-80) was 0 of 10 on day 14 (2×).
`Nc1nc2ncn(O)c2c(=O)[nH]1` was tested, and the T/C (dose: 6.25 mg/kg/injection, schedule: Q04DX004 (ip), vehicle: water) was 126 % of control, the T/C (dose: 12.5 mg/kg/injection, schedule: Q04DX004 (ip), vehicle: water) was 132 % of control and the T/C (dose: 25.0 mg/kg/injection, schedule: Q04DX004 (ip), vehicle: water) was 126 % of control. The survivor count (dose: 50.0 mg/kg/injection, schedule: Q04DX004 (ip), vehicle: water) was 5 of 10 on day 14 and the survivor count [4] was 1 of 10 on day 14.
With `CC(=O)Oc1ccccc1O` the survivor count (dose: 100.0 mg/kg/injection, schedule: Q04DX004 (ip), vehicle: saline + Tween-80 + alcohol) was 10 of 10 on day 9.
With `CSc1c(N(C)C)c(=O)c1=S` the survivor count [5] was 5 of 10 on day 14.
For `CC(=O)C1C(=O)C(=O)N(Cc2ccccc2)C1=O` (stereo not given), the survivor count (dose: 750.0 mg/kg/injection, schedule: Q04DX004 (ip), vehicle: Klucel (hydroxypropylcellulose) (HPC)) was 6 of 10 on day 14.
With `Nc1ccc(S(=O)(=O)Nc2cnc3c(Cl)cccc3n2)cc1` the survivor count (dose: 800.0 mg/kg/injection, schedule: Q04DX004 (ip), vehicle: DMSO) was 0 of 10 on day 14 and the survivor count (dose: 1200.0 mg/kg/injection, schedule: Q04DX004 (ip), vehicle: DMSO) was 0 of 10 on day 14.
For `CC1(C)CC(OS(C)(=O)=O)CC(C)(C)N1O`, the survivor count (dose: 300.0 mg/kg/injection, schedule: Q04DX004 (ip), vehicle: Klucel (hydroxypropylcellulose) (HPC)) was 0 of 10 on day 14.
For `Oc1c(Cl)cc(Cl)cc1C1Nc2ccccc2-n2cccc21` (stereo not given), the survivor count [6] was 10 of 10 on day 14 and the survivor count [5] was 10 of 10 on day 14.
For `O=C1N(Cl)C(=O)C(c2ccc(Cl)cc2)(c2ccc(Cl)cc2)N1Cl`, the survivor count [5] was 10 of 10 on day 14 and the survivor count [7] was 10 of 10 on day 14.
For `O=C1CSC(c2cccs2)N1c1nncs1` (stereo not given), the T/C [2] was 127 % of control and the survivor count [3] was 1 of 10 on day 14.
With `NCCn1c(-c2ccccc2)nc2ccccc2c1=O` the survivor count [2] was 2 of 10 on day 14.
`O=C1c2ccccc2C(=O)c2c1cn1c2Cc2ccccc2C1` was tested, and the survivor count (dose: 25.0 mg/kg/injection, schedule: Q04DX004 (ip), vehicle: Klucel (hydroxypropylcellulose) (HPC)) was 8 of 10 on day 14, the survivor count (dose: 100.0 mg/kg/injection, schedule: Q04DX004 (ip), vehicle: Klucel (hydroxypropylcellulose) (HPC)) was 8 of 10 on day 14 and the survivor count (dose: 100.0 mg/kg/injection, schedule: Q04DX004 (ip), vehicle: other) was 4 of 10 on day 14. For the same molecule, the survivor count (dose: 150.0 mg/kg/injection, schedule: Q04DX004 (ip), vehicle: other) was 5 of 10 on day 14, the survivor count (dose: 200.0 mg/kg/injection, schedule: Q04DX004 (ip), vehicle: Klucel (hydroxypropylcellulose) (HPC)) was 10 of 10 on day 14 and the survivor count (dose: 200.0 mg/kg/injection, schedule: Q04DX004 (ip), vehicle: other) was 4 of 10 on day 14.
In the case of `COc1cc(C2=NCCc3cc4c(cc32)OCO4)cc(OC)c1OC`, the survivor count (dose: 200.0 mg/kg/injection, schedule: Q04DX004 (ip), vehicle: saline) is reported as 4 of 10 on day 14.
In the case of `Cn1c(-c2ccc(/C=N\N3CCN(/N=C/c4ccc(-c5c[n+]6ccsc6n5C)cc4)CC3)cc2)c[n+]2ccsc12`, the survivor count (dose: 12.0 mg/kg/injection, schedule: Q04DX004 (ip), vehicle: saline with Tween-80) is reported as 0 of 10 on day 14 and the survivor count (dose: 24.0 mg/kg/injection, schedule: Q04DX004 (ip), vehicle: saline with Tween-80) is reported as 0 of 10 on day 14.
`COC1=C(OC)C(=O)C(C(=O)CCCCC(=O)O)=C(C)C1=O` was tested, and the survivor count [5] was 9 of 9 on day 14.
For `Clc1cccc(Cl)c1C(Nc1nncs1)Nc1nncs1`, the T/C [8] was 131 % of control, the T/C [6] was 125 and 142 % of control and the T/C [5] was 127, 136, 137 % of control. For the same molecule, the T/C [7] was 136 and 140 % of control [9 of 10 alive on day 14] and the survivor count (dose: 800.0 mg/kg/injection, schedule: Q04DX004 (ip), vehicle: saline with Tween-80) was 4 of 10 on day 14.
For `COc1ccc(OC)c(Cc2cnc3nc(N)nc(N)c3c2C)c1`, the T/C [4] was 137 % of control [8 of 10 alive on day 14], the survivor count (dose: 200.0 mg/kg/injection, schedule: Q04DX004 (ip), vehicle: water) was 3 of 10 on day 14 and the survivor count (dose: 400.0 mg/kg/injection, schedule: Q04DX004 (ip), vehicle: water) was 0 of 10 on day 14.
`CCCCCNc1ncnc2c(C)[nH]nc12` was tested, and the survivor count [2] was 2 of 10 on day 14.
`c1ccc2c(c1)[nH]c1c2c(N2CCOCC2)nn2cnnc12` was tested, and the survivor count [8] was 10 of 10 on day 14, the survivor count [6] was 8 of 10 on day 14 and the survivor count [5] was 9 of 10 on day 14. The survivor count [7] was 8 of 10 on day 14.
With `COc1ccc(Cl)c2c1[nH]c1nc3nc4cc(Cl)ccc4n3nc12` the survivor count (dose: 9.37 mg/kg/injection, schedule: Q04DX004 (ip), vehicle: saline with Tween-80) was 10 of 10 on day 14, the survivor count (dose: 18.75 mg/kg/injection, schedule: Q04DX004 (ip), vehicle: saline with Tween-80) was 10 of 10 on day 14 and the survivor count (dose: 37.5 mg/kg/injection, schedule: Q04DX004 (ip), vehicle: saline with Tween-80) was 10 of 10 on day 14.
